The record followed here is paper PMC3154951.

The assay concerns the target T1, full-length MLS-1 bait (C. elegans) (UniProt O17212).
T1 sequence: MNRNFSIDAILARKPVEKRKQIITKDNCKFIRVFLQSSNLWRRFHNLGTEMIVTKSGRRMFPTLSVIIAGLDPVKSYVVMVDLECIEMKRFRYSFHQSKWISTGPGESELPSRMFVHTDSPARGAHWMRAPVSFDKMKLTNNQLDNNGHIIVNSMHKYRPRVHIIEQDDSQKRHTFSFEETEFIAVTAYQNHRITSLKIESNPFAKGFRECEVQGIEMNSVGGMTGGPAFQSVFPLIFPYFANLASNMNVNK
Put plainly: two-hybrid; yeast two-hybrid; mls-1 bait in pLexA-NLS, unc-37 prey from the pACT-RB1 cDNA library.

These are yes or no findings as the source states them, for the method shown. Some entries that bind do so weakly or less than the wild type.

B1: UNC-37 prey, residues 70-612 (entire WD repeat domain) (domain or fragment, UniProt O02482 70-612)
chain: EFIMQSLAPQLSQDNQANCLAALEAFKTASPRENGNGAPALPPGFPPGAAGMLGMMPNMPFGMSPAMSQLFNQFASPHVNGGDGAGGSSGGASEAKKAKLEDPDDGELEIDVTNDDHPSTASNGGAANKNGRDSTNSVASSGASTPSIASNSRARQQQQPLAGLQGLEQMNFLAGFNPNLLRQASAAGGFNFLNDPHAQARLAAAIGQIGSRPAYSFKIVDGGVPTPTSFPPDAQKGPGIPTGLKKKMELNHGEVVCAATISRDNSRVYTGGKGCVKIWDVKESDISGATVVNRPPIASLDCLKENYIRSCKLFEDGNTLLIGGEASTVALWDLTTETKTLDLETDSQACYALAMSPDEKLLFACLADGNILIYDIHNKVKVGTLPGHQDGASCLDLSKDGTKLWSGGLDNSVRCWDLAQRKEVAKHDFASQVFSLGCCPNDEWVAVGMENNYVEVLSTTGKEKYQLTQHESCVLSLKFAHSGKFFISTGKDNALNAWRTPYGASLFQLKENSSVLSCDISFDDSLIVTGSGEKKATLYAVEY
As to B1, the binding result is recorded as “binds”.
